Results deposited as PubChem BioAssay AID1159508 (Drosophila RNAi Screening Center, 2015)
In all, the deposit lists 812 reagents; below is a part drawn at random. 18 of them (2.2%) were called active. 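Calls include both increased and decreased ATP; roughly one in four reagents has no third replicate value.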 Further read-outs or replicates are left out here. Not stated in the record: the amount of reagent.

Purpose: 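How silencing genes for RNA-binding proteins changes cellular ATP without other treatment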
System: Drosophila S2R+ cells
Knock-down reagent: long dsRNA against Drosophila genes
Time to read-out: 5 days
Measurement: 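Luminescent ATP signal as a proxy for cell fitness after 5 days of RNAi, given as a z-score in each replicate and averaged over replicates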
Reading the numbers: mean ATP z-score and ATP z-score: higher = more total ATP luminescence
Hit rule: In these data the active calls have mean ATP z-score at about -2 or lower, or at about 2 or higher
Meaning of the calls: active = strong ATP change (up or down); inactive = no strong ATP change

What is on record for papi [DRSC00693]?
mean ATP z-score: 0.456; ATP z-score, replicate 1: 0.247; Call: inactive

What is on record for papi [DRSC42659]?
mean ATP z-score: 0.24; ATP z-score, replicate 1: 0.137; Call: inactive

How did the screen score Paip1 [DRSC23561]?
mean ATP z-score: -0.176; ATP z-score, replicate 1: -0.308; Call: inactive

What is on record for Paip1 [DRSC30789]?
mean ATP z-score: -0.973; ATP z-score, replicate 1: -1.14; Call: inactive

With TyrRS-m [DRSC04286], how do the results read?
mean ATP z-score: 0.318; ATP z-score, replicate 1: -0.0456; Call: inactive

For TyrRS-m [DRSC42682], what was measured?
mean ATP z-score: 0.128; ATP z-score, replicate 1: -0.446; Call: inactive

What is on record for caz [DRSC23280]?
mean ATP z-score: -0.0742; ATP z-score, replicate 1: -0.142; Call: inactive

What did the screen give for caz [DRSC31434]?
mean ATP z-score: -0.202; ATP z-score, replicate 1: -0.47; Call: inactive

What is on record for eEF1alpha1 [DRSC25133]?
mean ATP z-score: -1.45; ATP z-score, replicate 1: -1.49; Call: inactive

With eEF1alpha1 [DRSC32105], what does the deposit list?
mean ATP z-score: -0.256; ATP z-score, replicate 1: -0.398; Call: inactive

What is on record for Adar [DRSC17725]?
mean ATP z-score: 0.337; ATP z-score, replicate 1: 0.0106; Call: inactive

For Adar [DRSC42388], how do the results read?
mean ATP z-score: 1.6; ATP z-score, replicate 1: 0.969; Call: inactive

With c12.1 [DRSC25556], what was measured?
mean ATP z-score: -0.461; ATP z-score, replicate 1: -0.579; Call: inactive

For c12.1 [DRSC31704], what does the deposit list?
mean ATP z-score: 0.00211; ATP z-score, replicate 1: -0.142; Call: inactive

An excerpt from above, limited to “mean ATP z-score”.
eEF1alpha1 [DRSC32105]: -0.256
Adar [DRSC17725]: 0.337

The list goes on:
For apt [DRSC32019], what does the deposit list?
mean ATP z-score: 0.991; ATP z-score, replicate 1: 0.298; Call: inactive

How did the screen score apt [DRSC32020]?
mean ATP z-score: 1.2; ATP z-score, replicate 1: 0.0686; Call: inactive

How did the screen score CG31957 [DRSC00207]?
mean ATP z-score: 1.62; ATP z-score, replicate 1: 1.01; Call: inactive

With CG31957 [DRSC42712], what does the deposit list?
mean ATP z-score: 0.652; ATP z-score, replicate 1: 0.277; Call: inactive

What is on record for scaf6 [DRSC10075]?
mean ATP z-score: -0.189; ATP z-score, replicate 1: -0.384; Call: inactive

For scaf6 [DRSC34298], what does the deposit list?
mean ATP z-score: 0.267; ATP z-score, replicate 1: -0.0444; Call: inactive

With CG12129 [DRSC06105], how do the results read?
mean ATP z-score: 0.66; ATP z-score, replicate 1: 0.366; Call: inactive

How did the screen score CG12129 [DRSC42672]?
mean ATP z-score: 0.385; ATP z-score, replicate 1: -0.212; Call: inactive

Which result is listed for CG13690 [DRSC00359]?
mean ATP z-score: -0.564; ATP z-score, replicate 1: -0.814; Call: inactive

What is on record for CG13690 [DRSC42658]?
mean ATP z-score: 0.888; ATP z-score, replicate 1: 0.471; Call: inactive

How did the screen score Pus10 [DRSC00629]?
mean ATP z-score: -0.348; ATP z-score, replicate 1: -0.706; Call: inactive

What did the screen give for Pus10 [DRSC42657]?
mean ATP z-score: 0.156; ATP z-score, replicate 1: -0.22; Call: inactive

With CG14628 [DRSC18626], what does the deposit list?
mean ATP z-score: 1.5; ATP z-score, replicate 1: 0.687; Call: inactive

With CG14628 [DRSC42708], how do the results read?
mean ATP z-score: -0.403; ATP z-score, replicate 1: -0.533; Call: inactive

For AGO2 [DRSC31769], how do the results read?
mean ATP z-score: -1.86; ATP z-score, replicate 1: -1.86; Call: inactive

For AGO2 [DRSC40785], what does the deposit list?
mean ATP z-score: -2.07; ATP z-score, replicate 1: -2.04; Call: active

How did the screen score mRpL49 [DRSC19908]?
mean ATP z-score: -0.391; ATP z-score, replicate 1: -0.671; Call: inactive

For mRpL49 [DRSC42017], how do the results read?
mean ATP z-score: 0.986; ATP z-score, replicate 1: 0.702; Call: inactive
